From patent publication US8802713B2, “3-alkoxy-1-phenylpyrazole derivatives and pesticides” (Kumiai Chemical Industry Co., Ltd., priority 2007, dated 2014)
Some entries share one result that the patent states for a list of compounds. For at least one compound, name, drawing or mass did not settle the structure.

Each compound was assayed on two-spotted spider mites (assay: Miticidal test on two-spotted spider mites (seedling dip)). Details: 500 ppm active ingredient, soybean seedlings with imago mites dipped, 25° C., 13 days.
Assay type: in vivo, Tetranvchus urticae
How it was run: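 Soybean seedlings carrying adult mites were dipped in wettable-powder dilution at 500 ppm active ingredient, air-dried, and held at 25° C for 13 days. Live mites were counted and a protective value calculated.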

| SMILES | protective value |
| --- | --- |
| CCC(=O)Nc1cc(OCC(F)(F)F)nn1-c1cc([S+]([O-])CC(F)(F)F)c(C)cc1F (stereo not drawn) [1-1430] | ≥ 90 |
| Cc1cc(F)c(-n2nc(OC(F)(F)C(F)F)cc2C)cc1[S+]([O-])CC(F)(F)F (stereo not drawn) [1-1418] | ≥ 90 |
| Cc1cc(F)c(-n2nc(OCC(F)(F)F)cc2C#N)cc1[S+]([O-])CC(F)(F)F (stereo not drawn) [1-1440] | ≥ 90 |
| Cc1cc(F)c(-n2nc(OCC(F)(F)F)cc2NC(=O)C2CC2)cc1[S+]([O-])CC(F)(F)F (stereo not drawn) [1-1434] | ≥ 90 |
| Cc1cc(F)c(-n2nc(OCC(F)(F)Cl)cc2C)cc1[S+]([O-])CC(F)(F)F (stereo not drawn) [1-1420] | ≥ 90 |
| CC(=O)Nc1cc(OC(F)F)nn1-c1cc([S+]([O-])CC(F)(F)F)c(C)cc1F (stereo not drawn) [1-1360] | ≥ 90 |
| Cc1cc(F)c(-n2nc(OCC(F)(F)F)cc2C)cc1[S+]([O-])CC(F)(F)F (stereo not drawn) [1-1416] | ≥ 90 |
| Cc1cc(F)c(-n2ccc(OCC(F)(F)F)n2)cc1[S+]([O-])CC(F)(F)F (stereo not drawn) [1-1364] | ≥ 90 |
| CC#CCOc1cc(C)n(-c2cc([S+]([O-])CC(F)(F)F)c(C)cc2F)n1 (stereo not drawn) [1-132] | ≥ 90 |
| Cc1cc(F)c(-n2nc(OC(F)(F)C(F)OC(F)(F)C(F)(F)C(F)(F)F)cc2Cl)cc1SCC(F)(F)F (stereo not drawn) [1-892] | ≥ 90 |
| CCOc1ccn(-c2cc(SCC(F)(F)F)c(C)cc2F)n1 [1-1535] | ≥ 90 |
| Cc1cc(F)c(-n2cc(Cl)c(OC(F)(F)C(F)OC(F)(F)C(F)(F)C(F)(F)F)n2)cc1SCC(F)(F)F (stereo not drawn) [1-1150] | ≥ 90 |
| Cc1cc(F)c(-n2nc(OCC(F)(F)C(F)(F)F)cc2NC(=O)CCl)cc1SCC(F)(F)F [1-1449] | ≥ 90 |
| CC(=O)Nc1cc(OCC(F)(F)C(F)(F)F)nn1-c1cc([S+]([O-])CCC(F)(F)F)c(C)cc1F (stereo not drawn) [1-180] | ≥ 90 |
| Cc1cc(F)c(-n2nc(OC(F)(F)C(F)(F)C(F)(F)C(F)(F)F)cc2Cl)cc1[S+]([O-])CC(F)(F)F (stereo not drawn) [1-875] | ≥ 90 |
| CC(=O)Nc1cc(OC(C)C(F)(F)F)nn1-c1cc([S+]([O-])CC(F)(F)F)c(C)cc1F (stereo not drawn) [1-276] | ≥ 90 |
| CC(=O)Nc1cc(OCCCC(F)(C(F)(F)F)C(F)(F)F)nn1-c1cc([S+]([O-])CC(F)(F)F)c(C)cc1F (stereo not drawn) [1-373] | ≥ 90 |
| C#CCNc1cc(OC(F)(F)C(F)OC(F)(F)F)nn1-c1cc([S+]([O-])CC(F)(F)F)c(C)cc1F (stereo not drawn) [1-579] | ≥ 90 |
| Cc1cc(F)c(-n2nc(OC(F)(F)C(F)OC(F)(F)C(F)(F)F)cc2N)cc1[S+]([O-])CC(F)(F)F (stereo not drawn) [1-459] | ≥ 90 |
| Cc1cc(F)c(-n2nc(OCC(F)(F)C(F)(F)C(F)(F)C(F)(F)F)cc2C(F)F)cc1[S+]([O-])CC(F)(F)F (stereo not drawn) [1-1544] | ≥ 90 |
| C#CCNc1cc(OC(F)(F)C(F)F)nn1-c1cc(SCC(F)(F)F)c(C)cc1F [1-1421] | ≥ 90 |

| SMILES | protective value |
| --- | --- |
| Cc1cc(F)c(-n2nc(OCC3CCCC3)cc2C)cc1[S+]([O-])CC(F)(F)F (stereo not drawn) [1-230] | ≥ 90 |
| Cc1cc(F)c(-n2nc(OCCC(F)(F)C(F)(F)C(F)(F)C(F)(F)C(F)(F)C(F)(F)F)cc2C)cc1SCC(F)(F)F [1-313] | ≥ 90 |
| Cc1cc(F)c(-n2nc(OC(F)(F)C(F)OC(F)(F)C(F)(F)C(F)(F)F)c(Br)c2Br)cc1SCC(F)(F)F (stereo not drawn) [1-1108] | ≥ 90 |
| Cc1cc(F)c(-n2cc(Cl)c(OC(F)(F)C(F)F)n2)cc1[S+]([O-])CC(F)(F)F (stereo not drawn) [1-1452] | ≥ 90 |
| Cc1cc(F)c(-n2nc(OC(C)C(F)(F)C(F)(F)F)cc2C)cc1SCC(F)(F)F (stereo not drawn) [1-277] | ≥ 90 |
| CC(=O)Nc1cc(OC(F)(F)C(F)(F)C(F)(F)C(F)(F)F)nn1-c1cc(SCC(F)(F)F)c(C)cc1F [1-486] | ≥ 90 |
| Cc1cc(F)c(-n2nc(OC(F)(F)C(F)OC(F)(F)C(F)(F)F)cc2C#N)cc1SCC(F)(F)F (stereo not drawn) [1-670] | ≥ 90 |
| Cc1cc(F)c(-n2ccc(OC(F)(F)C(F)Cl)n2)cc1SCC(F)(F)F (stereo not drawn) [1-1553] | ≥ 90 |
| Cc1cc(F)c(-n2cc(Br)c(OC(F)(F)C(F)(F)C(F)(F)C(F)(F)F)n2)cc1[S+]([O-])CC(F)(F)F (stereo not drawn) [1-1179] | ≥ 90 |
| Cc1cc(F)c(-n2cc(Cl)c(OCC(F)(F)C(F)(F)C(F)(F)C(F)(F)F)n2)cc1[S+]([O-])CC(F)(F)F (stereo not drawn) [1-1506] | ≥ 90 |
| Cc1cc(F)c(-n2ccc(Oc3ncc(C(F)(F)F)cc3Cl)n2)cc1SCC(F)(F)F [1-1557] | ≥ 90 |
| C=C(C(F)(F)F)C(F)(F)Oc1ccn(-c2cc([S+]([O-])CC(F)(F)F)c(C)cc2F)n1 (stereo not drawn) [1-1598] | ≥ 90 |
| Cc1cc(F)c(-n2nc(OC3CCCCC3)cc2C)cc1SCC(F)(F)F [1-235] | ≥ 90 |
| Cc1cc(F)c(-n2nc(OC(F)(F)C(F)OC(F)(F)C(F)(F)F)cc2Cl)cc1SCC(F)(F)F (stereo not drawn) [1-890] | ≥ 90 |
| Cc1cc(F)c(-n2ccc(OCc3ccc(Cl)nc3)n2)cc1SCC(F)(F)F [1-1605] | ≥ 90 |
| C#CCN(C(C)=O)c1cc(OC(F)(F)C(F)F)nn1-c1cc(SCC(F)(F)F)c(C)cc1F [1-1400] | ≥ 90 |
| CCC(=O)Nc1cc(OCC(F)(F)F)nn1-c1cc(SCC(F)(F)F)c(C)cc1F [1-1429] | ≥ 90 |
| C=CC(=O)Nc1cc(OCC(F)(F)F)nn1-c1cc(SCC(F)(F)F)c(C)cc1F [1-1455] | ≥ 90 |
| Cc1cc(F)c(-n2nc(OC(F)(F)C(F)Cl)cc2C)cc1SCC(F)(F)F (stereo not drawn) [1-1425] | ≥ 90 |
| Cc1cc(F)c(-n2nc(OC(F)(F)C(F)OC(F)(F)C(F)(F)F)c(Br)c2Br)cc1SCC(F)(F)F (stereo not drawn) [1-1106] | ≥ 90 |
| CC(=O)Nc1cc(OC(F)(F)C(F)Cl)nn1-c1cc(SCC(F)(F)F)c(C)cc1F (stereo not drawn) [1-1427] | ≥ 90 |

| SMILES | protective value |
| --- | --- |
| Cc1cc(F)c(-n2nc(OCCCOC(C(F)(F)F)C(F)(F)F)cc2C)cc1[S+]([O-])CC(F)(F)F (stereo not drawn) [1-391] | ≥ 90 |
| Cc1cc(F)c(-n2ccc(OS(C)(=O)=O)n2)cc1[S+]([O-])CC(F)(F)F (stereo not drawn) [1-2] | ≥ 90 |
| Cc1cc(F)c(-n2ccc(OCC(F)C(F)(F)F)n2)cc1[S+]([O-])CC(F)(F)F (stereo not drawn) [1-252] | ≥ 90 |
| COc1cc(OCC(F)(F)C(F)(F)C(F)(F)C(F)(F)F)nn1-c1cc([S+]([O-])CC(F)(F)F)c(C)cc1F (stereo not drawn) [1-365] | ≥ 90 |
| CNc1cc(OC(F)(F)C(F)OC(F)(F)C(F)(F)F)nn1-c1cc([S+]([O-])CC(F)(F)F)c(C)cc1F (stereo not drawn) [1-346] | ≥ 90 |
| Cc1cc(F)c(-n2nc(OC(F)(F)C(F)OC(F)(F)C(F)(F)F)cc2C(F)F)cc1SCC(F)(F)F (stereo not drawn) [1-1533] | ≥ 90 |
| Cc1cc(F)c(-n2ccc(OCc3ccc(F)cc3C(F)(F)F)n2)cc1SCC(F)(F)F [1-1595] | ≥ 90 |
| Cc1cc(F)c(-n2nc(OCC3CCCC3)cc2C)cc1SCC(F)(F)F [1-229] | ≥ 90 |
| CC(=O)Nc1cc(OCC(F)(F)C(F)(F)COCC(F)(F)F)nn1-c1cc([S+]([O-])CC(F)(F)F)c(C)cc1F (stereo not drawn) [1-1259] | ≥ 90 |
| Cc1cc(F)c(-n2nc(OCC(F)(F)C(F)(F)F)cc2NCC#N)cc1[S+]([O-])CC(F)(F)F (stereo not drawn) [1-170] | ≥ 90 |
| Cc1cc(F)c(-n2cc(Br)c(OCC(F)C(F)(F)F)n2)cc1[S+]([O-])CC(F)(F)F (stereo not drawn) [1-260] | ≥ 90 |
| Cc1cc(F)c(-n2cc(Cl)c(Oc3ncc(C(F)(F)F)cc3Cl)n2)cc1SCC(F)(F)F [1-1573] | ≥ 90 |
| CNc1cc(OC(F)(F)C(F)(F)C(F)(F)C(F)(F)C(F)(F)C(F)(F)F)nn1-c1cc(SCC(F)(F)F)c(C)cc1F [1-526] | ≥ 90 |
| Cc1cc(F)c(-n2cc(Br)c(OCC(F)C(F)(F)F)n2)cc1SCC(F)(F)F (stereo not drawn) [1-259] | ≥ 90 |
| Cc1cc(F)c(-n2nc(OC(F)(F)C(F)F)c(Br)c2Br)cc1SCC(F)(F)F [1-1408] | ≥ 90 |
| CC(=O)Nc1cc(OCCC(F)(C(F)(F)F)C(F)(F)F)nn1-c1cc([S+]([O-])CC(F)(F)F)c(C)cc1F (stereo not drawn) [1-1528] | ≥ 90 |
| Cc1cc(F)c(-n2cc(Br)c(OC(F)(F)C(F)OC(F)(F)C(F)(F)F)n2)cc1SCC(F)(F)F (stereo not drawn) [1-1194] | ≥ 90 |
| Cc1cc(F)c(-n2nc(OC(F)(F)C(F)OC(F)(F)C(F)(F)F)c(Cl)c2N=Cc2ccccc2)cc1[S+]([O-])CC(F)(F)F (stereo not drawn) [1-1550] | ≥ 90 |
| Cc1cc(F)c(-n2nc(OC(F)(F)C(F)OC(F)(F)C(F)(F)F)c(Cl)c2Cl)cc1SCC(F)(F)F (stereo not drawn) [1-384] | ≥ 90 |
| CC(=O)Nc1cc(OC(C)C#N)nn1-c1cc(SCC(F)(F)F)c(C)cc1F (stereo not drawn) [1-245] | ≥ 90 |
| COCCCOc1cc(C)n(-c2cc(SCC(F)(F)F)c(C)cc2F)n1 [1-297] | ≥ 90 |

What follows are compounds tested on two-spotted spider mites (assay: Miticidal test on two-spotted spider mites (soil irrigation)). Details: 100 ppm active ingredient, soil (100 g) of soybean seedlings irrigated with 5 mL, 25° C., 13 days.
Assay type: in vivo, Tetranvchus urticae

| SMILES | protective value |
| --- | --- |
| CCC(=O)Nc1cc(OCC(F)(F)F)nn1-c1cc([S+]([O-])CC(F)(F)F)c(C)cc1F (stereo not drawn) [1-1430] | ≥ 90 |
| Cc1cc(F)c(-n2nc(OC(F)(F)C(F)F)cc2C)cc1[S+]([O-])CC(F)(F)F (stereo not drawn) [1-1418] | ≥ 90 |
| Cc1cc(F)c(-n2nc(OCC(F)(F)F)cc2C#N)cc1[S+]([O-])CC(F)(F)F (stereo not drawn) [1-1440] | ≥ 90 |
| Cc1cc(F)c(-n2nc(OCC(F)(F)F)cc2NC(=O)C2CC2)cc1[S+]([O-])CC(F)(F)F (stereo not drawn) [1-1434] | ≥ 90 |
| Cc1cc(F)c(-n2nc(OCC(F)(F)Cl)cc2C)cc1[S+]([O-])CC(F)(F)F (stereo not drawn) [1-1420] | ≥ 90 |
| CC(=O)Nc1cc(OC(F)F)nn1-c1cc([S+]([O-])CC(F)(F)F)c(C)cc1F (stereo not drawn) [1-1360] | ≥ 90 |
| Cc1cc(F)c(-n2nc(OCC(F)(F)F)cc2C)cc1[S+]([O-])CC(F)(F)F (stereo not drawn) [1-1416] | ≥ 90 |
| Cc1cc(F)c(-n2ccc(OCC(F)(F)F)n2)cc1[S+]([O-])CC(F)(F)F (stereo not drawn) [1-1364] | ≥ 90 |
| CC(=O)Nc1cc(OC(F)(F)C(F)OC(F)(F)F)nn1-c1cc([S+]([O-])CC(F)(F)F)c(C)cc1F (stereo not drawn) [1-16, 5-acetylamino-1-{2-fluoro-4-methyl-5-(2,2,2-trifluoroethylsulfinyl)phenyl}-3-{1,1,2-trifluoro-2-(trifluoromethoxy)ethoxy}pyrazole] | ≥ 90 |
| CC(=O)Nc1cc(OC(F)(F)C(F)F)nn1-c1cc([S+]([O-])CC(F)(F)F)c(C)cc1F (stereo not drawn) [1-1368, 5-acetylamino-1-{2-fluoro-4-methyl-5-(2,2,2-trifluoroethylsulfinyl)phenyl}-3-(1,1,2,2-tetrafluoroethoxy)pyrazole] | ≥ 90 |
| CC#CCOc1cc(C)n(-c2cc([S+]([O-])CC(F)(F)F)c(C)cc2F)n1 (stereo not drawn) [1-132] | ≥ 90 |
| Cc1cc(F)c(-n2nc(OCC(F)(F)C(F)(F)F)cc2C)cc1[S+]([O-])CC(F)(F)F (stereo not drawn) [1-92, 1-{2-fluoro-4-methyl-5-(2,2,2-trifluoroethylsulfinyl)phenyl}-5-methyl-3-(2,2,3,3,3-pentafluoropropoxy)pyrazole] | ≥ 90 |
